Data as given in PubChem BioAssay AID1259284 (Sanger Institute, 2017)
The deposit covers 794 reagents; shown is a random part of them. 16 of them (2%) count as active. 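Calls concern knock-down without drug only; drug synergy was judged apart, with scores above 0.15 taken as synergy.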 Further read-outs or replicates are left out here. No sequences are given here. Not stated in the record: the amount of reagent, the time to read-out.

- Purpose: 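siRNA screen across the kinome seeking partners for BYL719, cetuximab or trametinib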 (primary screen)
- Cell system: SW48 human colorectal cancer cells
- Reagent: siRNA pool against human genes
- Treatment: anchor drug BYL719 at 1 µM, cetuximab at 5 µg/ml or trametinib at 10 nM, or DMSO vehicle alone
- Read-out: 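Viability scaled to non-targeting control pool, robust z-score from controls, and synergy scores for each drug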
- Scale: robust z-score, no drug: higher = more cells survive knock-down
- Rule for the call: 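Called essential when the robust z-score of viability without drug falls below -3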
- Calls: active = essential without drug; inactive = no change without drug

Silencing of ANKK1 (ankyrin repeat and kinase domain containing 1) gave: robust z-score, no drug -0.68; inactive.
EFNB3 (ephrin B3) scored robust z-score, no drug 0.426; inactive.
BCKDK (branched chain keto acid dehydrogenase kinase) gave robust z-score, no drug 0.426; inactive.
For CKM (creatine kinase, M-type), the values are robust z-score, no drug 0.426; inactive.
After knock-down of DYRK1A the results were robust z-score, no drug 0.426; inactive.
Silencing of TAF1 (TATA-box binding protein associated factor 1) gave: robust z-score, no drug 0.426; inactive.
With knock-down of RPS6KA3 (ribosomal protein S6 kinase A3), the screen gave robust z-score, no drug 0.426; inactive.
Silencing of TEX14 (testis expressed 14, intercellular bridge forming factor) came out at: robust z-score, no drug 0.0631; inactive.
Depletion of NEK7 (NIMA related kinase 7) resulted in: robust z-score, no drug 0.426; inactive.
CHKA (choline kinase alpha) showed robust z-score, no drug -0.0647; inactive.
DGKD (diacylglycerol kinase delta) showed robust z-score, no drug 0.426; inactive.
Silencing of PTGS1 (prostaglandin-endoperoxide synthase 1) gave: robust z-score, no drug 0.426; inactive.
PIM2 (Pim-2 proto-oncogene, serine/threonine kinase) scored robust z-score, no drug -1.11; inactive.
ERBB2 (erb-b2 receptor tyrosine kinase 2) gave robust z-score, no drug 0.426; inactive.

Part of the list above, reformatted.
| gene symbol | robust z-score, no drug | Outcome |
| --- | --- | --- |
| DGKD (diacylglycerol kinase delta) | 0.426 | inactive |
| PTGS1 (prostaglandin-endoperoxide synthase 1) | 0.426 | inactive |

The results go on.
Against TJP2 (tight junction protein 2), the values are robust z-score, no drug 0.157; inactive.
Silencing of PANK1 (pantothenate kinase 1) resulted in: robust z-score, no drug 0.426; inactive.
PRKACA (protein kinase cAMP-activated catalytic subunit alpha) scored robust z-score, no drug 0.426; inactive.
TBCK (TBC1 domain containing kinase) scored robust z-score, no drug 0.426; inactive.
For FRK (fyn related Src family tyrosine kinase), the values are robust z-score, no drug 0.426; inactive.
For NEK6 (NIMA related kinase 6) the deposit lists robust z-score, no drug 0.426; inactive.
For KHK (ketohexokinase), the values are robust z-score, no drug -0.291; inactive.
For MLKL (mixed lineage kinase domain like pseudokinase), the entry reads robust z-score, no drug 0.426; inactive.
Knock-down of STK17A (serine/threonine kinase 17a) came out at: robust z-score, no drug 0.426; inactive.
Knock-down of CSNK1G2 (casein kinase 1 gamma 2) resulted in: robust z-score, no drug 0.426; inactive.
With knock-down of SOS2 (SOS Ras/Rho guanine nucleotide exchange factor 2) the results were robust z-score, no drug -0.364; inactive.
Silencing of ROS1 (ROS proto-oncogene 1, receptor tyrosine kinase) resulted in: robust z-score, no drug 0.426; inactive.
Depletion of MAP3K3 (mitogen-activated protein kinase kinase kinase 3) resulted in: robust z-score, no drug 0.426; inactive.
Against PKN3 (protein kinase N3) the deposit lists robust z-score, no drug -1.21; inactive.
